Laboratory results: US7029918B2, “Water-soluble derivatives of lipophilic drugs” (Roche Diagnostics Operations, Inc., priority 2002, dated 2006)
Values joined by “and” are separate entries in the source; they are usually repeats but may differ in a detail not shown here. Equal values may be shown once. At least one structure is not confirmed: it was looked up by name or label, or the drawing left a doubt.

Key:
[1] = tested on: antibody (competition with benzodiazepine-BSA conjugate 7); experiment: Immunochromatographic assay of benzodiazepines (nitrocellulose test strip, competitive); assay type: binding; details: urine; scale 2.5 to 3.0 dark blue, 1.5 to 2.0 medium blue, 1.0 light blue, 0.5 barely perceivable, 0 colorless
Procedure: In the absence of lipophilic drug in a sample being analyzed, the drug conjugate can bind to the antibody, and this binding can be measured. When a the lipophilic drug is present in the sample, the drug competes with the drug conjugate for binding to the antibody. Antibody that is bound to the liphophilic drug no longer contributes to the binding measurement. Lipophilic drug content is determined relative to the values obtained for known concentrations of the standard compound (Adler, F. L. J. Immunol. 1971, 106(6):1684–1685. See also Bates, M. Amer. Acad. Forensic Sci. 1991, 37(6):1000).
The benzodiazepine-BSA conjugate was prepared in a similar manner as described in Example 6, but treating with BSA rather than BTG. The product was prepared and stored in 100 mM potassium phosphate as 10 mg/mL solution with 0.05% sodium azide as preservative Example 9-Immunochromatographic assay of benzodiazepines using water-soluble derivative 2 as calibrator The immunochromatographic assay was conducted using a nitrocellulose-based test strip as described in detail in U.S. Pat. No. 5,770,458. Mylar backed large pore size nitrocellulose (8–12 micron) was cut into pieces of 15 cm in length and 5 cm in width. A solution of the benzodiazepine-BSA conjugate 7 (about 5 mg/mL) and anti-BSA monoclonal antibody (about 2 mg/mL), both in 50 mM potassium phosphate buffer pH 7.5, were loaded onto IVEK CORP. (North Springfield, Vt.) […] 2000™ system. The solutions were dispensed at the rate 1 μl/cm onto nitrocellulose at a distance of 2 cm and 1 cm, respectively, from the 15 cm side. The nitrocellulose segments were allowed to dry for about 30 min. at 37° C., and then were blocked with polyvinyl alcohol (PVA, m.w. 13,000–23,000) solution in 20 mM TRIS, pH 8, for 30 min. at room temperature. The segments were then rinsed in water and dried.
The same nitrocellulose as described above in this example was used as a separate membrane for microparticles (top membrane). The construction of the two-membrane strip configuration was carried out as described in detail in U.S. Pat. No. 5,770,458. In brief, the top membrane was blocked and washed using the same protocol as the main membrane. The top membrane containing the appropriate amount of microparticles was laminated to the main membrane with ADHESIVE […] INC. (Glen Rock, Pa.) adhesive mylar and the segment was then cut into 5 mm wide strips. The sample pad and sink pad were placed respectively at the beginning and terminal ends of the strips. […] The signal strength is determined as follows: 2.5 to 3.0=dark blue, 1.5 to 2.0-medium blue, 1.0=light blue, 0.5=barely perceivable color and 0=colorless. When the strip read colorless, a complete inhibition is achieved and the sample is indicated to contain 200 ng/mL of the drug used to prepare the “standards”.

[2] = Heat stress stability of urine standard solutions, GC/MS quantification; assay type: physicochemical
Procedure: Urine standard solutions were prepared using pooled, filtered, normal human urine containing 0.09 percent sodium azide. […] Each of the drug stock solutions was added analytically to the assigned aliquot of urine pool. Final drug concentrations in the solutions were determined by GC-MS analyses performed at ELSOHLY LABORATORIES (Oxford, MS).
The stability of the above standard solutions were evaluated using three different analytical technologies: (1) GCIMS (Gas Chromatography/Mass Spectrometry) analysis, (2) ABUSCREEN ONLINE Benzodiazepines Immunoassay, and (3) HPLC (High Pressure Liquid Chromatography) analysis.
The standard solutions were stored at various temperatures, including 4° C., 45° C. and 55° C., and tested at different time intervals.

O=C1Nc2ccc(Cl)cc2C(c2ccccc2)=NC1O (stereo not shown) [Oxazepam, reference compound]
signal strength at 50 ng/mL standard [1]: 2.00 | signal strength at 100 ng/mL standard [1]: 1.50 and 1.00 | signal strength at 200 ng/mL standard [1]: 0.50 | signal strength at 400 ng/mL standard [1]: 0 | GC/MS concentration, Day 0 ([2]; human urine standard solution, starting concentration): Day 0 = 196 ng/mL | GC/MS concentration after storage at 4° C. ([2]; human urine, two weeks, 4° C.): 196 ng/mL | GC/MS concentration after storage at 45° C. ([2]; human urine, two weeks, 45° C.): 24 ng/mL | loss of compound at 45° C. ([2]; human urine, two weeks, 45° C., GC/MS): 88% | GC/MS concentration after storage at 55° C. ([2]; human urine, two weeks, 55° C.): 0 ng/mL | loss of compound at 55° C. ([2]; human urine, two weeks, 55° C., GC/MS): 100%
